Data published in patent US20050191252A1, “Skin beautification cosmetic system using iontophoresis device, ultrasonic facial stimulator, and cosmetic additive” (priority 2004, published 2005).
At least one structure is not confirmed: it was looked up by name or label, or the drawing left a doubt.

Key:
collagen [1] = test: Collagen synthesis promotion activity of vitamin C, iontophoretic introduction (Test Example 2), human face and arm; format: in vivo; settings: iontophoretic introduction every day for three months, vs blank (FIG. 3)
collagen [2] = test: Collagen synthesis promotion activity of vitamin C, iontophoretic introduction (Test Example 2), rat abdomen; format: in vivo; settings: iontophoretic introduction every day for two weeks, vs same site without introduction (FIG. 3)

Measured: amount of collagen synthesis

O=C1O[C@H]([C@@H](O)CO)C(O)=C1O [Vitamin C, C-ascorbic acid]
significantly increase: collagen [1]; human arm | collagen [1]; human face (those with solar elastosis) | collagen [2]
